Data source: PubChem BioAssay AID1259405 (NCATS, 2018)
The deposit covers about 50,000 reagents; this is an unselected part. About 4,000 of all reagents (8%) were called active. 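Mouse siRNA library applied to hamster cells; one well for each siRNA.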 The numbers tell different reagents against one gene apart.

Assay: 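Mouse-designed siRNAs used to find CHO productivity engineering targets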 (primary screen)
System: Chinese hamster CHO-K1 ovary cells with stable secreted eGFP expression
Reagent: single siRNA against mouse genes, 0.8 pmol siRNA per well (2 µl of 400 nM stock)
Timing: 3 days
Measured: 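Percent of the per-plate non-targeting control median for intracellular GFP per well by laser scanning cytometry and for cell viability by ATP luminescence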
Scale: GFP, % of control: higher = more GFP per well, higher productivity; viability (ATP), % of control: higher = more viable cells (more ATP)
Hit rule: 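a knock-down is called active if GFP reaches 120% or more of non-targeting control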

no.	Target gene	reagent	GFP, % of control	viability (ATP), % of control	outcome
1	Lpar6 (lysophosphatidic acid receptor 6)	1	90.7	81.2	inactive
2	Lpar6 (lysophosphatidic acid receptor 6)	2	70	71.4	inactive
3	Lpar6 (lysophosphatidic acid receptor 6)	3	74	30.1	inactive
4	Prss12 (serine protease 12 neurotrypsin (motopsin))	1	160	65.5	active
5	Prss12 (serine protease 12 neurotrypsin (motopsin))	2	78.6	59.2	inactive
6	Prss12 (serine protease 12 neurotrypsin (motopsin))	3	103	57.7	inactive
7	Lrp2bp (Lrp2 binding protein)	1	98.2	62.1	inactive
8	Lrp2bp (Lrp2 binding protein)	2	50.9	65.1	inactive
9	Lrp2bp (Lrp2 binding protein)	3	70.9	76.3	inactive
10	Cdip1 (cell death inducing Trp53 target 1)	1	76	49.2	inactive
11	Cdip1 (cell death inducing Trp53 target 1)	2	80.5	76.8	inactive
12	Cdip1 (cell death inducing Trp53 target 1)	3	114	103	inactive
13	Wwox (WW domain-containing oxidoreductase)	1	58.2	70.9	inactive
14	Wwox (WW domain-containing oxidoreductase)	2	65.7	70.2	inactive
15	Wwox (WW domain-containing oxidoreductase)	3	71.8	66.7	inactive
16	Or5p4 (olfactory receptor family 5 subfamily P member 4)	1	72.6	53.5	inactive
17	Or5p4 (olfactory receptor family 5 subfamily P member 4)	2	99.3	85.3	inactive
18	Or5p4 (olfactory receptor family 5 subfamily P member 4)	3	60.8	57.5	inactive
19	Gpr108 (G protein-coupled receptor 108)	1	68.3	43.3	inactive
20	Gpr108 (G protein-coupled receptor 108)	2	45.6	51.4	inactive
21	Gpr108 (G protein-coupled receptor 108)	3	73.2	76	inactive
22	Arhgef10 (Rho guanine nucleotide exchange factor 10)	1	21.3	47.5	inactive
23	Arhgef10 (Rho guanine nucleotide exchange factor 10)	2	43.9	56.8	inactive
24	Ebf1 (early B cell factor 1)	1	82.4	72.5	inactive
25	Ebf1 (early B cell factor 1)	2	66	67	inactive
26	Ebf1 (early B cell factor 1)	3	37.7	73.6	inactive
27	Clasrp (CLK4-associating serine/arginine rich protein)	1	76.6	91.7	inactive
28	Clasrp (CLK4-associating serine/arginine rich protein)	2	77.8	67.3	inactive
29	Clasrp (CLK4-associating serine/arginine rich protein)	3	57.8	52	inactive
30	Trpd52l3 (tumor protein D52-like 3)	1	103	103	inactive
31	Trpd52l3 (tumor protein D52-like 3)	2	81.5	83.5	inactive
32	Trpd52l3 (tumor protein D52-like 3)	3	71.3	97.5	inactive
33	Chrnb2 (cholinergic receptor nicotinic beta 2 subunit)	1	57.1	79.6	inactive
34	Chrnb2 (cholinergic receptor nicotinic beta 2 subunit)	2	62.5	81.7	inactive
35	Chrnb2 (cholinergic receptor nicotinic beta 2 subunit)	3	100	110	inactive

Reagents listed above called active (1):
Target gene	reagent	GFP, % of control	viability (ATP), % of control	outcome
Prss12 (serine protease 12 neurotrypsin (motopsin))	1	160	65.5	active
